Data from publication PMC6549136.
Results are given in words; binding and its absence hold for the method and conditions named. Some entries that bind do so weakly or less than the wild type. Sequences can lack the tags named with a protein. Blank lines part the entries; values can stand above or below the binder they belong to.

Biological target: T1, TAP-tagged Rpc82 (S. cerevisiae) (UniProt P32349)
T1 sequence: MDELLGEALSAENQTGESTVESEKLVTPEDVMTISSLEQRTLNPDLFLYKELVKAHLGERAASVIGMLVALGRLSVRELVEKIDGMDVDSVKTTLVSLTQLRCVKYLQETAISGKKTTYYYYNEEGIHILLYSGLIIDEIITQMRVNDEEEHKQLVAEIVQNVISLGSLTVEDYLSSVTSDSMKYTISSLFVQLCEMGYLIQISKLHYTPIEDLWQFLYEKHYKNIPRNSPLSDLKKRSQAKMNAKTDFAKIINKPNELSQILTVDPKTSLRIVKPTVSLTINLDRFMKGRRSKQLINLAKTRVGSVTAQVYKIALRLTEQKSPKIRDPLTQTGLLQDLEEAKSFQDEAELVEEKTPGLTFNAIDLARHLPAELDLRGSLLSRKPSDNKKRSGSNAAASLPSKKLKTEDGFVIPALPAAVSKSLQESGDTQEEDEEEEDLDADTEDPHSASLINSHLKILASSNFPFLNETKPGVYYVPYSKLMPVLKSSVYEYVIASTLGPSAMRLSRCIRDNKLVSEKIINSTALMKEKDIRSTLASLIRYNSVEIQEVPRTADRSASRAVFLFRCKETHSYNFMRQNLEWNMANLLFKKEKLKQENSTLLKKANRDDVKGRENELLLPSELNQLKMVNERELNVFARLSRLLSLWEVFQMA
Assay: tandem-affinity purification; TAP-tagged Rpc82 purified from hmt1Δ cells; purified proteins resolved on 4–12% SDS–PAGE and silver stained

binding: binds
B1: Rpc34 (protein, UniProt P32910 1-317)
chain: MSGMIENGLQLSDNAKTLHSQMMSKGIGALFTQQELQKQMGIGSLTDLMSIVQELLDKNLIKLVKQNDELKFQGVLESEAQKKATMSAEEALVYSYIEASGREGIWSKTIKARTNLHQHVVLKCLKSLESQRYVKSVKSVKFPTRKIYMLYSLQPSVDITGGPWFTDGELDIEFINSLLTIVWRFISENTFPNGFKNFENGPKKNVFYAPNVKNYSTTQEILEFITAAQVANVELTPSNIRSLCEVLVYDDKLEKVTHDCYRVTLESILQMNQGEGEPEAGNKALEDEEEFSIFNYFKMFPASKHDKEVVYFDEWTI

binding: binds
B2: Rpc31, endogenous in hmt1Δ yeast cells (hypomethylated) (protein, UniProt P17890 1-251)
chain: MSSYRGGSRGGGSNYMSNLPFGLGYGDVGKNHITEFPSIPLPINGPITNKERSLAVKYINFGKTVKDGPFYTGSMSLIIDQQENSKSGKRKPNIILDEDDTNDGIERYSDKYLKKRKIGISIDDHPYNLNLFPNELYNVMGINKKKLLAISKFNNADDVFTGTGLQDENIGLSMLAKLKELAEDVDDASTGDGAAKGSKTGEGEDDDLADDDFEEDEDEEDDDDYNAEKYFNNGDDDDYGDEEDPNEEAAF
